For at least one compound, name, drawing or mass did not settle the structure.
System: Akt
Assay: Western blot of radiation-induced Akt phosphorylation in HUVEC
Assay type: cell-based, human
Conditions: wortmannin 4 nM or LY294002 2 μM added 30 minutes prior to irradiation, 3 Gy
From the text: HUVEC cells were obtained from Clonetics and were maintained in EBM-2 medium supplemented with EGM™-2MV SINGLEQUOTS® (Bio-Whittaker, Inc., Walkersville, Md., United States of America). An Eldorado-8 Cobalt-60 teletherapy unit (Atomic Energy of Canada Limited, Mississauga, Ontario, Canada) was used to irradiate endothelial cell cultures at a dose rate of 0.84 Gy per minute. Delivered doses ranging from 0 to 12 Gy were verified by use of thermoluminescence detectors.
In order to determine if Akt is phosphorylated in response to irradiation, cultured HUVEC cells were serum starved for 4 hours, exposed to irradiation, and the phosphorylation of Akt was examined in cell extracts by Western blotting. Total cellular protein was extracted after radiation treatment as follows. Cells were counted and then washed with iced-cold PBS twice before the addition of lysis buffer (M-PER™ mammalian protein extraction reagent; Pierce Chemical Company, Rockford, Ill., United States of America; or 20 mM Tris, 150 mM NaCl, 1 mM EDTA, 1% Triton X-100, 2.5 mM sodium pyrophosphate, 1 mM phenylmethylsulphonyl fluoride (PMSF), and […] Leupeptin (Roche Molecular Biochemicals, Indianapolis, Ind., United States of America)). Protein concentrations were quantified using the Biorad method (Bradford, 1976). […]
The presence of Akt protein on the membrane was determined as follows. […]

SMILES: COC[C@H]1OC(=O)c2coc3c2[C@@]1(C)C1=C(C3=O)[C@@H]2CCC(=O)[C@@]2(C)C[C@H]1OC(C)=O [wortmannin, Wortmannin]
- Akt phosphorylation following irradiation: strong inhibition

From patent publication US20060084697A1, “Pi3k antagonists as radiosensitizers” (priority 2002, published 2006)
